The values below come from PubChem BioAssay AID330 (DTP/NCI, 2004).

This test has as its system P388 leukemia ip, CD2F1 mice, survival T/C. As to the kind of experiment: NCI In Vivo Anticancer Drug Screen. Data for tumor model P388 Leukemia (intraperitoneal) in CD2F1 (CDF1) mice. The following applies: T/C endpoint: median survival time, higher T/C = longer survival.
Setting [1] is: dose: 200.0 mg/kg/injection, schedule: Q01DX005 (ip), vehicle: Klucel (hydroxypropylcellulose) (HPC).
[2] abbreviates: dose: 400.0 mg/kg/injection, schedule: Q04DX003 (ip), vehicle: saline with Tween-80.
Setting [3] is: dose: 100.0 mg/kg/injection, schedule: Q01DX009 (ip), vehicle: saline with Tween-80.
[4] abbreviates: dose: 200.0 mg/kg/injection, schedule: Q01DX009 (ip), vehicle: saline with Tween-80.
Where [5] appears, read: dose: 50.0 mg/kg/injection, schedule: Q01DX009 (ip), vehicle: saline.
[6] abbreviates: dose: 60.0 mg/kg/injection, schedule: Q01DX005 (ip), vehicle: saline with Tween-80.
[7] abbreviates: dose: 120.0 mg/kg/injection, schedule: Q01DX005 (ip), vehicle: saline with Tween-80.
Setting [8] is: dose: 240.0 mg/kg/injection, schedule: Q01DX005 (ip), vehicle: saline with Tween-80.
Setting [9] is: dose: 200.0 mg/kg/injection, schedule: Q04DX003 (ip), vehicle: saline with Tween-80.
The mark [10] stands for this setting: dose: 200.0 mg/kg/injection, schedule: Q01DX005 (ip), vehicle: saline with Tween-80.
[11] abbreviates: dose: 100.0 mg/kg/injection, schedule: Q01DX009 (ip), vehicle: saline.
The mark [12] stands for this setting: dose: 200.0 mg/kg/injection, schedule: Q01DX009 (ip), vehicle: saline.

The list is a part of this screen's results and no random one: it is rich in T/C values a quarter to a half above the control, in often repeated tests (any T/C) and in doses without a T/C. Further doses and runs are listed elsewhere. T/C is the treated group as % of the vehicle group. Some entries give survivors of the animals treated and no T/C: the source files T/C as zero there, which appears to mark a toxic dose or a test without result, not a measured value. Some survivor counts are full or nearly so, which does not show that the dose was tolerated: the source hardly ever lists a survival T/C far under the control, and the zero likely stands for such cases as well. Survivors were counted at the toxicity check, usually on the fifth day, unless a day is given; later deaths do not show. Schedules are NCI's codes, taken here to give the interval after Q, in days (D) or hours (H), and the number of doses after X. Some structures stand for samples that the source files as different forms (salt, stereo form or complex); doses refer to the form tested. Some entries were tested several times; the results are listed from low to high. For survival time, the PubChem record calls one and a half times the control and up active, and a quarter to a half above the control has no call in these data; cut-offs in other NCI protocols can differ. Some T/C values carry the count of animals alive at the toxicity check (mostly the fifth day); where none is given, no animal had died by that day.

Take `COC1/C=C\C=C(/C)C(=O)NC2=CC(=O)C(NC3CC3)=C(CC(C)CC(OC)C(O)C(C)/C=C(/C)C1OC(N)=O)C2=O` (centres undefined): the survivor count by setting is: (dose: 150.0 mg/kg/injection, schedule: Q04DX002 (ip), vehicle: saline with Tween-80) 2 of 6; (dose: 200.0 mg/kg/injection, schedule: Q04DX002 (ip), vehicle: saline with Tween-80) 1 of 6.
Turning to `C1CCCCC2=NCCC(CCCC1)C2` (centres undefined), the survivor count under setting [1] is 0 of 6.
On to `COC(=O)C#CBr`, for which, under “dose: 12.5 mg/kg/injection, schedule: Q04DX003 (ip), vehicle: saline”, the survivor count is recorded as 4 of 6.
For `N#Cc1ncnc2nc[nH]c12`, the survivor count under setting [1] is reported as 0 of 5.
Consider `CCCCNC(=O)Nc1ccc(C(=O)OCCCC)cc1`, for which the survivor count under setting [2] is on record as 6 of 6.
`COc1ccc(C(C)c2cc3c(cc2OCC(=O)O)OCO3)cc1OC` (centres undefined): the survivor count (dose: 200.0 mg/kg/injection, schedule: Q01DX005 (ip), vehicle: distilled water + Tween-80) is 2 of 6.
In the case of `CN1CCC(O)(c2ncc(Br)c3ccccc23)CC1`, the survivor count (dose: 240.0 mg/kg/injection, schedule: Q01DX005 (ip), vehicle: saline + alcohol) was 0 of 6.
Turning to `O=C(O)c1cccc(-n2ncc(Cl)c(Cl)c2=O)c1`, the survivor count under setting [3] is recorded as 4 of 6.
As for `CCCC/C=C(\C#N)SCC`, the survivor count is on record as 4 of 6 (dose: 150.0 mg/kg/injection, schedule: Q01DX009 (ip), vehicle: saline with Tween-80) and 0 of 6 (dose: 300.0 mg/kg/injection, schedule: Q01DX009 (ip), vehicle: saline with Tween-80).
With `COc1ccc(/C=C2/SC(=S)N(C(C)C)C2=O)cc1OC`, the survivor count runs as follows: (dose: 50.0 mg/kg/injection, schedule: Q01DX009 (ip), vehicle: saline with Tween-80) 6 of 6; under setting [3], 6 of 6; under setting [4], 5 of 6.
As for `CCCN1CN2CCOC2C(C)(C)C1` (centres undefined), the T/C (dose: 160.0 mg/kg/injection, schedule: Q01DX009 (ip), vehicle: saline with Tween-80) is 128 % of control.
For the compound `COC(=O)C(CNc1ccc(S(N)(=O)=O)cc1)=[N+]=[N-]`, the survivor count under setting [5] was 5 of 6.
For the compound `NCCNC[Si](c1ccccc1)(c1ccccc1)c1ccccc1`, the survivor count is, setting by setting: under setting [6], 3 of 6 and 5 of 6; under setting [7], 0 of 6; under setting [8], 0 of 6.
`NC(N)=N/N=C\c1c2ccccc2cc2ccccc12`: the T/C (dose: 1.56 mg/kg/injection, schedule: Q01DX009 (ip), vehicle: other) was 134 % of control; the T/C (dose: 3.13 mg/kg/injection, schedule: Q01DX009 (ip), vehicle: other) was 148 % of control; the T/C (dose: 6.25 mg/kg/injection, schedule: Q01DX009 (ip), vehicle: other) was 144 % of control; the T/C (dose: 12.5 mg/kg/injection, schedule: Q01DX009 (ip), vehicle: other) is 144 % of control; the T/C (dose: 25.0 mg/kg/injection, schedule: Q01DX009 (ip), vehicle: other) was 145 % of control.
On to `O=C(CC(=O)C(F)(F)F)c1csc2ccccc12`, for which the survivor count is on record as 6 of 6 (dose: 100.0 mg/kg/injection, schedule: Q04DX003 (ip), vehicle: saline with Tween-80); 3 of 6 under setting [9]; 3 of 6 under setting [2].
For the compound `CC(=O)c1c(C)n(-c2ccccc2)c2c1[nH]c1ccccc12`, the survivor count is, setting by setting: (dose: 30.0 mg/kg/injection, schedule: Q01DX005 (ip), vehicle: Klucel (hydroxypropylcellulose) (HPC)) 6 of 6; (dose: 60.0 mg/kg/injection, schedule: Q01DX005 (ip), vehicle: Klucel (hydroxypropylcellulose) (HPC)) 6 of 6; (dose: 120.0 mg/kg/injection, schedule: Q01DX005 (ip), vehicle: Klucel (hydroxypropylcellulose) (HPC)) 6 of 6.
For the compound `CCN(CC)Cc1cc2[nH]c3c4ccc(Cl)cc4ncc3c2cc1OC`, the survivor count is, setting by setting: under setting [3], 5 of 6; under setting [10], 4 of 6; under setting [4], 0 of 6.
As to `[Cl][Sb]([Cl])([Cl])([c]1ccccc1)[c]1ccccc1`, the survivor count is, setting by setting: under setting [5], 6 of 6; under setting [11], 6 of 6; under setting [12], 4 of 6.
Regarding `CCOc1cc(CC[N+](C)(C)C)cc2c1ccc1ccc(OC)c(OC)c12`, the survivor count is 0 of 6 (dose: 50.0 mg/kg/injection, schedule: Q01DX005 (ip), vehicle: saline with Tween-80); 0 of 6 (dose: 100.0 mg/kg/injection, schedule: Q01DX005 (ip), vehicle: saline with Tween-80); 0 of 6 under setting [10].
Take `CC1C=NNC1=O` (centres undefined): the T/C is 126 % of control (dose: 250.0 mg/kg/injection, schedule: Q01DX009 (ip), vehicle: saline with Tween-80) and 140 % of control [5 of 6 alive] (dose: 500.0 mg/kg/injection, schedule: Q01DX009 (ip), vehicle: saline with Tween-80).
`O=C1C2C(C(=O)N1c1ccccc1)C1(c3cccnc3)NC(=O)C2(Cc2cccnc2)c2ccccc21` (centres undefined): the survivor count under setting [7] is 6 of 6.
In the case of `COc1cc2c(cc1OC)C(=O)C(Br)CC2` (centres undefined), under setting [4], the survivor count was 5 of 6.
On to `CCN(CC)CCCC(C)Nc1nccc2cccc(Cl)c12` (centres undefined), for which, where the note is “dose: 200.0 mg/kg/injection, schedule: Q01DX005 (ip), vehicle: saline”, the survivor count is given as 0 of 5.
Regarding `CCC1CN1P(=O)(N(CC)CC)N1CC1CC` (centres undefined), the T/C (dose: 66.0 mg/kg/injection, schedule: Q01DX009 (ip), vehicle: saline) was 130 % of control; the T/C under setting [11] is 140 % of control; the T/C (dose: 150.0 mg/kg/injection, schedule: Q01DX009 (ip), vehicle: saline) is 125 % of control. In addition, the survivor count under setting [12] is on record as 6 of 6.
Turning to `COC(=O)Nc1nc2ccc(CCC(=O)c3c(C)oc(C)c3-c3ccc(NC(C)=O)cc3)cc2[nH]1`, under setting [8], the T/C was 133 % of control.
Consider `CSc1nc(C)c(C(=O)CCN2CCN(c3ccccn3)CC2)s1`, for which, for the setting “dose: 240.0 mg/kg/injection, schedule: Q01DX005 (ip), vehicle: saline”, the survivor count is given as 3 of 6.
Take `NNC(=O)c1ccccc1`: the survivor count by setting is: under setting [3], 4 of 6; under setting [9], 2 of 6.
As to `C[CH2][Sn]1([CH2]C)[O]C(=O)[O][Sn]([CH2]C)([CH2]C)[O]1`, the T/C runs as follows: (dose: 1.56 mg/kg/injection, schedule: Q01DX005 (ip), vehicle: Klucel (hydroxypropylcellulose) (HPC)) 126 % of control; (dose: 3.12 mg/kg/injection, schedule: Q01DX005 (ip), vehicle: Klucel (hydroxypropylcellulose) (HPC)) 140 % of control; (dose: 6.25 mg/kg/injection, schedule: Q01DX005 (ip), vehicle: Klucel (hydroxypropylcellulose) (HPC)) 132 % of control; (dose: 12.5 mg/kg/injection, schedule: Q01DX005 (ip), vehicle: Klucel (hydroxypropylcellulose) (HPC), evaluated on day 20) 137 % of control; (dose: 12.5 mg/kg/injection, schedule: Q01DX005 (ip), vehicle: Klucel (hydroxypropylcellulose) (HPC), evaluated on day 30) 142 % of control [5 of 6 alive]. The survivor count (dose: 50.0 mg/kg/injection, schedule: Q01DX005 (ip), vehicle: Klucel (hydroxypropylcellulose) (HPC)) is 2 of 6; the survivor count (dose: 100.0 mg/kg/injection, schedule: Q01DX005 (ip), vehicle: Klucel (hydroxypropylcellulose) (HPC)) was 0 of 6; the survivor count under setting [1] is reported as 0 of 6.
On to `C1=C(c2ccccc2)C(c2cccc(OCCN3CCCCC3)c2)Oc2ccccc21` (centres undefined), for which the survivor count under setting [6] is listed as 0 of 6, the survivor count under setting [7] is 0 of 6 and the survivor count under setting [8] is 0 of 6.
Take `CS(=O)(=O)ON1C(=O)c2ccccc2C1=O`: under “dose: 200.0 mg/kg/injection, schedule: Q04DX003 (ip), vehicle: Klucel (hydroxypropylcellulose) (HPC)”, the survivor count is listed as 1 of 6.
